# Experimental data from paper PMC3291536.
# These are yes or no findings as the source states them, for the method shown. Binding seen in cells or lysates may run through a third protein. Here binding means that the protein was enriched with, or labelled near, the bait; the list need not be complete. Where a sequence is shown, tags or fusion partners need not be part of it.
# T1: Flag-Ha tagged HAN11 (UniProt P61962)
# T1 sequence: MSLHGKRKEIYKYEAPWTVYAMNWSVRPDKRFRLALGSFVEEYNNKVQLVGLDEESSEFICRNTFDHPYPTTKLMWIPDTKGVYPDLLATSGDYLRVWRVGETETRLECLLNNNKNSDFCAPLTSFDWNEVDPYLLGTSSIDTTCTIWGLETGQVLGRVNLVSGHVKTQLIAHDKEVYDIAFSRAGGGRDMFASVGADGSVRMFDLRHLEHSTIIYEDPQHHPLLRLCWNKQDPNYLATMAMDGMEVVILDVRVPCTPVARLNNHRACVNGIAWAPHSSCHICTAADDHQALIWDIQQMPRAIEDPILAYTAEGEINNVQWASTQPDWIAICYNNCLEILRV
# Molecular target: T1, Flag-Ha tagged HAN11
# Assay: affinity purification with mass spectrometry; double-tag purification of Flag-Ha tagged HAN11 from HEK293 cells with anti-Flag (M2) and anti-HA (12CA5) antibodies; mass spectrometry of co-purified proteins
binder,measurement,value
"REST (Neuron-Restrictive Silencing Factor) (protein, UniProt Q13127 1-1097) MATQVMGQSSGGGGLFTSSGNIGMALPNDMYDLHDLSKAELAAPQLIMLANVALTGEVNGSCCDYLVGEERQMAELMPVGDNNFSDSEEGEGLEESADIKGEPHGLENMELRSLELSVVEPQPVFEASGAPDIYSSNKDLPPETPGAEDKGKSSKTKPFRCKPCQYEAESEEQFVHHIRVHSAKKFFVEESAEKQAKARESGSSTAEEGDFSKGPIRCDRCGYNTNRYDHYTAHLKHHTRAGDNERVYKCIICTYTTVSEYHWRKHLRNHFPRKVYTCGKCNYFSDRKNNYVQHVRTHTGERPYKCELCPYSSSQKTHLTRHMRTHSGEKPFKCDQCSYVASNQHEVTRHARQVHNGPKPLNCPHCDYKTADRSNFKKHVELHVNPRQFNCPVCDYAASKKCNLQYHFKSKHPTCPNKTMDVSKVKLKKTKKREADLPDNITNEKTEIEQTKIKGDVAGKKNEKSVKAEKRDVSKEKKPSNNVSVIQVTTRTRKSVTEVKEMDVHTGSNSEKFSKTKKSKRKLEVDSHSLHGPVNDEESSTKKKKKVESKSKNNSQEVPKGDSKVEENKKQNTCMKKSTKKKTLKNKSSKKSSKPPQKEPVEKGSAQMDPPQMGPAPTEAVQKGPVQVEPPPPMEHAQMEGAQIRPAPDEPVQMEVVQEGPAQKELLPPVEPAQMVGAQIVLAHMELPPPMETAQTEVAQMGPAPMEPAQMEVAQVESAPMQVVQKEPVQMELSPPMEVVQKEPVQIELSPPMEVVQKEPVKIELSPPIEVVQKEPVQMELSPPMGVVQKEPAQREPPPPREPPLHMEPISKKPPLRKDKKEKSNMQSERARKEQVLIEVGLVPVKDSWLLKESVSTEDLSPPSPPLPKENLREEASGDQKLLNTGEGNKEAPLQKVGAEEADESLPGLAANINESTHISSSGQNLNTPEGETLNGKHQTDSIVCEMKMDTDQNTRENLTGINSTVEEPVSPMLPPSAVEEREAVSKTALASPPATMAANESQEIDEDEGIHSHEGSDLSDNMSEGSDDSGLHGARPVPQESSRKNAKEALAVKAAKGDFVCIFCDRSFRKGKDYSKHLNRHLVNVYYLEEAAQGQE",binding,binds
